{"source": "patent WO2017208210A1", "binders": {"B1": {"name": "rat anti-human MCAM monoclonal antibody clone 2107.4.10 (antibody, V domains shown)", "VH": "QVQLKESGPGLVQSSQTLSLTCTVSGFSLTSNGVSWVRQPPGKGLEWIAAISSGGSTYYNSAFKSRLSISRNTSKSQVLLKMNSLQTEDTGMYFCARHRPFYFDYWGQGVMVTVSS", "VL": "DIRVTQSPSLLSASVGDRVTLNCKGSQNIYKSLAWFRLKRGEAPKLLIYDANSLQTGIPSRFSGSGSGTDFTLTITSLQPEDVATYFCQQYYSGYTFGAGTKLELK"}}, "target": "T1, human MCAM expressed on CHO cells transfected with the full length human MCAM gene (human) (UniProt P43121)", "T1 sequence": "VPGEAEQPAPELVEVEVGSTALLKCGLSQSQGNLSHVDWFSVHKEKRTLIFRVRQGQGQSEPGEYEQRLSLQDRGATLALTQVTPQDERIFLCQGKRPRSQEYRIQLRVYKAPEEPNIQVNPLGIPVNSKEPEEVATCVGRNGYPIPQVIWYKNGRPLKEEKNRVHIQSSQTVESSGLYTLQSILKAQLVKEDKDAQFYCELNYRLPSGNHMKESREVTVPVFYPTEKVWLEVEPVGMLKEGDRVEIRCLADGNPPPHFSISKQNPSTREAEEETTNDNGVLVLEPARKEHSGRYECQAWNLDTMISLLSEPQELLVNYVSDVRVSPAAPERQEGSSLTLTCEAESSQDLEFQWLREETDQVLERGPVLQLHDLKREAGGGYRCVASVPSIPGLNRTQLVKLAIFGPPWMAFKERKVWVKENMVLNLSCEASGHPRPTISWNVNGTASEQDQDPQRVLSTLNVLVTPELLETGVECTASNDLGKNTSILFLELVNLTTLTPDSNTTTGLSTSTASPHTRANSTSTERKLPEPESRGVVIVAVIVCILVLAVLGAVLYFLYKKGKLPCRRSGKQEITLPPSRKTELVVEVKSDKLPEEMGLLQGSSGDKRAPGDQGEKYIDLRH", "assay": "cells expressing human MCAM", "note": "These are yes or no findings as the source states them, for the method shown. Some entries that bind do so weakly or less than the wild type."}
{"binder": "B1", "values": [{"measurement": "binding", "value": "binds"}]}
